Hit rate of the full screen: of about 400,000 compounds, about 5,500 (1.4%) were called active. Inconclusive results, whose numbers are uncertain, are shown with a selection of clear calls. Calls come from the whole dose curve; as a rule, active = well fitted cell-killing curve with a large enough effect; inconclusive = small, poorly fitted or top-dose-only effect, or effect the other way; inactive = flat fitted curve, though single readings scatter. A potency beside an inconclusive call is a rough fit, not a confirmed value.
Assay: qHTS assay for MDR1-selective chemotherapeutics: Primary screen using the parental adenocarcinoma cell KB-3-1; note: nearly all actives have a fitted effect of over 60% in size
Conditions: KB-3-1 viability, CellTiter-Glo ATP luminescence, 72 h; activity change, negative = cytotoxic: at 46.1 µM (top of the series)
Method in brief: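 Multi-concentration cytotoxicity screen in KB-3-1 cells grown in DMEM lacking phenol red with 10% FBS. After 72 h at 37 °C with compound, ATP-dependent luminescence was recorded.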
% is set by controls: 0 for no effect and ±100 for the full control effect; potency is the fitted concentration of half-maximal effect.

SMILES | activity change, negative = cytotoxic | Potency
O=C(CCNC(=O)c1ccccc1Cl)NNC(=O)c1ccccc1O | inactive: -4.71% | –
CCOc1ccccc1C(=O)N(Cc1cccs1)c1ccc(Cl)cc1 | – | inconclusive: 20.6 µM [cytotoxic, single point]
Cc1ccc(-c2cc(-c3ccc(F)cc3)n[nH]2)c(O)c1 | – | inconclusive: 16.4 µM [cytotoxic, partial curve]
CCOc1ccc(NC(=O)C2CC(=O)N(C)C(=Nc3ccc4c(c3)OCO4)S2)cc1 (stereo unspecified) | – | inconclusive: 29.1 µM [cytotoxic, single point]
COc1ccc(C)cc1Nc1n[n+](-c2ccccc2)c(-c2ccc(NC(C)=O)cc2)s1 | inactive: -11.7% | –
O=C(Nc1c2c(nc3ccccc13)CCCC2)c1cccc([N+](=O)[O-])c1 | – | inconclusive: 0.651 µM [rising, full curve]
Cn1cc([N+](=O)[O-])c(C(=O)Nc2cc(Oc3cccnc3)cc([N+](=O)[O-])c2)n1 | – | inconclusive: 29.1 µM [cytotoxic, single point]
CN1CCN(c2cccc(Nc3nn4c(=O)c5ccccc5nc4s3)c2)CC1 | inactive: -21.5% | –
NNc1nc(Nc2ccc([N+](=O)[O-])cc2)nc(N2CCCCCC2)n1 | inactive: 1.41% | –
CCOC(=O)c1ccn(CSc2c(F)c(F)cc(F)c2F)n1 | inactive: 18.8% | –
COc1ccc2cc(C(=O)C3CCCN(Cc4cnc(N5CCOCC5)s4)C3)ccc2c1 (stereo unspecified) | – | inconclusive: 20.6 µM [cytotoxic, partial curve, poor fit]
CC1CCN(S(=O)(=O)c2ccc3c(c2)N(CC(=O)N2CCN(c4ccccc4)CC2)C(=O)CO3)CC1 | inconclusive: -80.9% | –
Cc1cc(=O)[nH]c(SCC(=O)c2ccc3c(c2)NC(=O)CO3)n1 | – | inconclusive: 0.0073 µM [rising, full curve, poor fit]
Cc1ccc(C)c(CN2C(=O)c3ccccc3S(=O)c3ccc(C(=O)N4CCN(c5ccccn5)CC4)cc32)c1 (stereo unspecified) | – | active: 10.3 µM
O=C(N/N=C/c1ccc([N+](=O)[O-])o1)c1cc(-c2ccc(-c3ccccc3)cc2)nc2ccccc12 | – | inconclusive: 25.9 µM [cytotoxic, single point]
COc1ccc(Cn2c(=O)sc3ccccc32)cc1OC | – | active: 14.6 µM
O=C(COc1ccc(Cl)cc1)Nc1ccc(C(=O)NCc2cccnc2)cc1 | – | inconclusive: 11.6 µM [cytotoxic, partial curve]
Cc1nn(C)c(C)c1S(=O)(=O)N(CC(=O)N1CCN(c2ccccc2)CC1)c1ccc(C(C)C)cc1 | inactive: 5.7% | –
O=C(O)C1CCN(C(=O)c2ccccc2N2C(=O)[C@@H]3Cc4c([nH]c5ccccc45)C(c4cccc(Cl)c4)N3C2=O)CC1 (stereo partly specified) | inactive: 0% | –
Cc1c(/C=N/NC(=O)CNc2ccccc2)c2ccccn2c1C(=O)c1ccccc1 | – | inconclusive: 29.1 µM [cytotoxic, single point]
CCC1CCCCN1C(=O)c1cc(S(=O)(=O)N2CCOCC2)ccc1C (stereo unspecified) | inactive: -11.2% | –
COc1ccc(/C=N/OCC(=O)N2CC3(C)CC2CC(C)(C)C3)cc1OC (stereo unspecified) | inactive: -7.81% | –
O=C(CCn1c(=O)c2cccn2c2ccccc21)Nc1ccc(F)cc1 | inactive: -6.36% | –

Entries above with four or more nitrogen atoms, in the order listed:
SMILES | activity change, negative = cytotoxic | Potency
COc1ccc(C)cc1Nc1n[n+](-c2ccccc2)c(-c2ccc(NC(C)=O)cc2)s1 | inactive: -11.7% | –
Cn1cc([N+](=O)[O-])c(C(=O)Nc2cc(Oc3cccnc3)cc([N+](=O)[O-])c2)n1 | – | inconclusive: 29.1 µM [cytotoxic, single point]
CN1CCN(c2cccc(Nc3nn4c(=O)c5ccccc5nc4s3)c2)CC1 | inactive: -21.5% | –
NNc1nc(Nc2ccc([N+](=O)[O-])cc2)nc(N2CCCCCC2)n1 | inactive: 1.41% | –
CC1CCN(S(=O)(=O)c2ccc3c(c2)N(CC(=O)N2CCN(c4ccccc4)CC2)C(=O)CO3)CC1 | inconclusive: -80.9% | –
Cc1ccc(C)c(CN2C(=O)c3ccccc3S(=O)c3ccc(C(=O)N4CCN(c5ccccn5)CC4)cc32)c1 (stereo unspecified) | – | active: 10.3 µM
O=C(N/N=C/c1ccc([N+](=O)[O-])o1)c1cc(-c2ccc(-c3ccccc3)cc2)nc2ccccc12 | – | inconclusive: 25.9 µM [cytotoxic, single point]
Cc1nn(C)c(C)c1S(=O)(=O)N(CC(=O)N1CCN(c2ccccc2)CC1)c1ccc(C(C)C)cc1 | inactive: 5.7% | –
O=C(O)C1CCN(C(=O)c2ccccc2N2C(=O)[C@@H]3Cc4c([nH]c5ccccc45)C(c4cccc(Cl)c4)N3C2=O)CC1 (stereo partly specified) | inactive: 0% | –
Cc1c(/C=N/NC(=O)CNc2ccccc2)c2ccccn2c1C(=O)c1ccccc1 | – | inconclusive: 29.1 µM [cytotoxic, single point]

Continuation:

SMILES | activity change, negative = cytotoxic | Potency
COc1cc(S(=O)(=O)Nc2cccc(C)c2)ccc1NC(=O)c1cccnc1 | – | inconclusive: 5.8 µM [cytotoxic, full curve]
Cc1nc(-c2ccc(C)c(S(=O)(=O)N3CCC(C(=O)Nc4ccc(Cl)cc4)CC3)c2)no1 | – | inconclusive: 23.1 µM [cytotoxic, single point]
CCOc1ccc(S(=O)(=O)NC(Cc2c[nH]c3ccccc23)C(=O)O)cc1 (stereo unspecified) | inactive: 5.65% | –
COc1ccc(S(=O)(=O)NCC(c2ccco2)N2CCc3ccccc32)cc1 (stereo unspecified) | inactive: -0.368% | –
COc1ccc(NC(=O)C2(C)Cc3c(-c4ccc(NC(C)=O)cc4)ccnc3O2)cc1OC (stereo unspecified) | inactive: -0.0596% | –
N/C(Cc1ccc(Cl)c(Cl)c1)=N\OC(=O)c1ccc(Br)o1 | inactive: 9.76% | –
CCC1CCCCN1CCCNC(=O)c1cc2c(=O)n(CC)c3ccccc3c2s1 (stereo unspecified) | – | inconclusive: 20.6 µM [cytotoxic, single point]
Cc1cc(C)cc(-n2c(C)cc(C(=O)CSc3nnnn3C)c2C)c1 | – | inconclusive: 20.6 µM [cytotoxic, single point]
CCOC(=O)CSc1nc2ccccc2c(=O)n1CCN1CCOCC1 | inactive: 3.21% | –
C/C(=N\NC(=O)C(=O)Nc1cc(Cl)ccc1Cl)c1ccncc1 | inactive: 26.3% | –
O=C(Nc1ccccc1N1CCCCC1)C1CCN(S(=O)(=O)c2cccc(C(F)(F)F)c2)CC1 | – | inconclusive: 10.3 µM [cytotoxic, partial curve]
CC(C)c1nc2c(c(=O)c3ccccc3n2C)c(=O)n1CCc1ccccc1 | inactive: 0.588% | –
COc1cccc(N2CCN(c3nc(-c4ccccc4C)cc(=O)[nH]3)CC2)c1 | – | inconclusive: 29.1 µM [cytotoxic, single point]
COc1cccc(NC(=O)N2CCN(c3nc(-c4cccc(OC)c4)cs3)CC2)c1 | – | inconclusive: 18.4 µM [cytotoxic, single point]
O=C(OC1CCOC1=O)c1cc(-c2cccs2)nc2ccccc12 (stereo unspecified) | inactive: 14.4% | –
O=C(NNc1ccccc1)C(=O)NNc1ccccc1 | – | inconclusive: 32.6 µM [cytotoxic, single point]
COC(=O)c1c(N)n(-c2ccc(OC)c(Cl)c2)c2nc3ccccc3nc12 | inactive: -0.144% | –
O=C1Nc2ccccc2N=C(c2ccc3c(c2)OCO3)C1N(C(=O)c1ccnc2ccccc12)c1ccccc1 (stereo unspecified) | – | inconclusive: 29.1 µM [cytotoxic, single point]
Cc1ccc(Nc2cc(C)c3ccc(O)cc3n2)cc1C | – | inconclusive: 29.1 µM [cytotoxic, single point]
Cc1ccccc1-c1cc2nc(NCc3cccnc3)n(C)c(=O)c2s1 | inactive: 0% | –
COc1ccc(Cn2ccc3nc(C)c(C(=O)Nc4ccc(OC(F)(F)F)cc4)cc3c2=O)cc1 | inactive: -11.8% | –
Cc1ccc(CN2C3CCCC2CC(NC(=O)c2ccc(F)cc2)C3)cc1 (stereo unspecified) | inactive: -6.5% | –
Cn1c(=O)n(Cc2ccc(F)cc2)c(=O)c2c1nc1n2CCCN1C1CCCCC1 | – | inconclusive: 29.1 µM [cytotoxic, single point]
